Where a name gives a salt, the structure may show the parent alone. The list shows a part of the results. Repeats in this data set agree poorly, so a single value says little.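 The human kidney-derived cells carry a stably integrated construct of eight TEAD-binding elements driving luciferase, read by luminescence in a drug-repurposing library screen. A compound counts as a hit when its signal is more than five robust Z scores above the plate mean.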

Data on 17 molecules can be found in the supplement of paper PMC10735217.

This test relates to HEK293A TEAD-LUC reporter. The test is described as follows: TEAD-luciferase reporter activity (YAP activation), robust Z score vs plate; higher = stronger YAP/TEAD activation. As to conditions: 24 h.

For the molecule `CCCCCCc1ccc(O)cc1O`, the TEAD-luciferase reporter activity (compound concentration: 200 nM) was inactive: -0.209, the TEAD-luciferase reporter activity (compound concentration: 2 uM) is inactive: 3.13 and the TEAD-luciferase reporter activity (compound concentration: 10 uM) is inactive: -1.89.
The matching figures for `CN(C)Cc1ccc(C2CCCCC2)cc1`: inactive: -2.22, inactive: 1.85 and inactive: -0.56.
Take `CCC/N=C1\S/C(=C/c2ccc(OCCO)c(Cl)c2)C(=O)N1c1ccccc1C`: the TEAD-luciferase reporter activity is inactive: 1.75 (compound concentration: 200 nM), inactive: -0.364 (compound concentration: 2 uM) and inactive: 1.45 (compound concentration: 10 uM).
In the same order, the values of `CC(C)(C)NC(=O)c1ccc(Oc2cc(F)c(CC(=O)O)cc2Cl)c(NS(=O)(=O)c2ccc(Cl)cc2)c1` are inactive: -1.04, inactive: 0.608 and inactive: 0.809.
In the same order, the values of `COC(=O)c1ccccc1-c1c2ccc(N)cc2[o+]c2cc(N)ccc12` [Rhodamine 123] are inactive: 2.77, inactive: -1.07 and inactive: -0.44.
The matching figures for `CC1CCOc2cccc(Oc3ccc(N4C(=O)NC(C)(C)C4=O)cn3)c21` (centres undefined): inactive: -1.75, inactive: -0.00445 and inactive: 0.452.
On to `CO[C@H]1C=CC=C(C)C(=O)NC2=CC(=O)C(N)=C(C[C@@H](C)C[C@H](OC)[C@H](O)[C@@H](C)C=C(C)[C@@H]1OC(N)=O)C2=O` [17-Aminogeldanamycin], for which the TEAD-luciferase reporter activity by setting is: (compound concentration: 200 nM) inactive: -2.19; (compound concentration: 2 uM) inactive: -0.619; (compound concentration: 10 uM) inactive: -1.46.
Take `CC(CN1CCCCC1)C(=O)c1ccc2ccccc2c1` (centres undefined): the TEAD-luciferase reporter activity is, setting by setting: (compound concentration: 200 nM) inactive: -0.851; (compound concentration: 2 uM) inactive: -1.08; (compound concentration: 10 uM) inactive: 0.0934.
With `COc1ccc(CN2CCCCC23Cc2ccccc2CNC3=O)cc1` (centres undefined), the TEAD-luciferase reporter activity (compound concentration: 200 nM) is inactive: -1.72 and the TEAD-luciferase reporter activity (compound concentration: 10 uM) is inactive: -0.931.
As to `CCCCCCCCCCCCCCCCCCOCC1(COP(=O)([O-])OCC[N+](C)(C)C)CCCO1` (centres undefined), the TEAD-luciferase reporter activity by setting is: (compound concentration: 200 nM) inactive: 0.823; (compound concentration: 2 uM) inactive: -0.849; (compound concentration: 10 uM) inactive: 0.143.
For `O=C(N[C@H](C(=O)O)c1ccccc1)c1ccc(-c2ccc(C(F)(F)F)cc2)cc1`, the TEAD-luciferase reporter activity reads like this: (compound concentration: 200 nM) inactive: -0.81; (compound concentration: 2 uM) inactive: -1.42; (compound concentration: 10 uM) inactive: 0.166.
In the same order, the values of `CCCC(F)(F)C[C@H](N[C@@H](c1ccc(F)cc1)C(F)(F)F)C(=O)NC1(C#N)CC1` are inactive: -1.69, inactive: -1.46 and inactive: -1.16.
As to `C[C@H]1COc2c(C3(N)CC3)c(F)cc3c(=O)c(C(=O)O)cn1c23` [pazufloxacin], under “compound concentration: 2 uM”, the TEAD-luciferase reporter activity was inactive: -0.654.
On to `C[C@H]1COc2c(C3(N)CC3)c(F)cc3c(=O)c(C(=O)O)cn1c23`, for which the TEAD-luciferase reporter activity by setting is: (compound concentration: 200 nM) inactive: -1.58; (compound concentration: 10 uM) inactive: -2.06.
`CC(=O)N[C@@H](CSSC[C@H](NC(C)=O)C(=O)O)C(=O)O` [D-7193 (as di-L-lysine salt)]: the TEAD-luciferase reporter activity is, setting by setting: (compound concentration: 200 nM) inactive: -0.936; (compound concentration: 2 uM) inactive: -0.0401; (compound concentration: 10 uM) inactive: -1.05.
On to `CCC(C)(C)C(=O)O[C@H]1C[C@@H](C)C=C2C=C[C@H](C)[C@H](CC[C@@H]3C[C@@H](O)CC(=O)O3)[C@H]21` [Simvastatin], for which the TEAD-luciferase reporter activity (compound concentration: 2 uM) was inactive: -0.561.
Regarding `CCC(C)(C)C(=O)O[C@H]1C[C@@H](C)C=C2C=C[C@H](C)[C@H](CC[C@@H]3C[C@@H](O)CC(=O)O3)[C@H]21`, the TEAD-luciferase reporter activity is inactive: 0.443 (compound concentration: 200 nM) and inactive: 1.15 (compound concentration: 10 uM).
